Assay [1] deals with Flag-YY1 (Yin Yang 1), full length (human) (UniProt P25490). The assay can be described thus: co-IP; co-transfection of Flag-YY1 and Myc-BCCIP in p53-null HCT116 (p53-/-) cells; whole-cell lysate; anti-Flag M2 and anti-c-Myc agarose; western blot.
Assay [2] has the same target. The assay can be described thus: co-IP; co-transfection of tagged plasmids in HCT116 (p53+/+) cells, also cells stably expressing pLVX-shNT or pLVX-shBCCIP; whole-cell lysate 48 h after transfection; anti-Flag M2 and anti-c-Myc agarose; elution with peptide or SDS loading buffer; western blot. On the technique in general: Immunoblotting shows a protein as a band on a membrane.

Sequences of proteins named here, by UniProt entry; tags and fusion partners are left off. A change or cut given only in a name is not applied to a line headed by its entry.
UniProt P25490: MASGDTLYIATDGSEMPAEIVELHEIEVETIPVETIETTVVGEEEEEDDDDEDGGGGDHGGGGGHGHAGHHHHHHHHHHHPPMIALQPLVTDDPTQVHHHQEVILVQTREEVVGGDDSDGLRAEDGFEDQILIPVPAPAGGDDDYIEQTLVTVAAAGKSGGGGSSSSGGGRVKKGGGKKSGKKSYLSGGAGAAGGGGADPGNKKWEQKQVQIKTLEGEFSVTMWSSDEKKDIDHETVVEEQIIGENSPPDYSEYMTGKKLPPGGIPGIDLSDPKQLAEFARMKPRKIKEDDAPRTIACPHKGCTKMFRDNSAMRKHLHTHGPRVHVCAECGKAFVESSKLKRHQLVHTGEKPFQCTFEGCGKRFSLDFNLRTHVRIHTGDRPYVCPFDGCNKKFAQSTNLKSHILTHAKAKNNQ
UniProt Q9P287: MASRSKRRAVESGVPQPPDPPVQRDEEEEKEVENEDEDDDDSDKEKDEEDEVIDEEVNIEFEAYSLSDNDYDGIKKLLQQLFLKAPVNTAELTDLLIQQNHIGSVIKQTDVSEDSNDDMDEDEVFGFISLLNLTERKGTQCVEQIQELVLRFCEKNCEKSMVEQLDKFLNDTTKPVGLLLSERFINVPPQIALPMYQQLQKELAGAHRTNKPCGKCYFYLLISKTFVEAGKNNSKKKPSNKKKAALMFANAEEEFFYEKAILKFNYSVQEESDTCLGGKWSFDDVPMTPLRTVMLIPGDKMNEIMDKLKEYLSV

Assay [3] addresses Myc-BCCIPβ (BRCA2 and CDKN1A-interacting protein, isoform beta, 314 amino acids) (human) (UniProt Q9P287). The assay can be described thus: co-IP; co-transfection of Flag-YY1 and Myc-BCCIP in p53-null HCT116 (p53-/-) cells; whole-cell lysate; anti-Flag M2 and anti-c-Myc agarose; western blot.
The target is the same in assay [4]. The assay can be described thus: co-IP; co-transfection of tagged plasmids in HCT116 (p53+/+) cells, also cells stably expressing pLVX-shNT or pLVX-shBCCIP; whole-cell lysate 48 h after transfection; anti-Flag M2 and anti-c-Myc agarose; elution with peptide or SDS loading buffer; western blot.

Results on 2 substances are retold here after PMC6539464.

These are yes or no findings as the source states them, for the method shown. Binding seen in cells or lysates may run through a third protein. Some entries that bind do so weakly or less than the wild type.

As for “Myc-BCCIPβ (BRCA2 and CDKN1A-interacting protein, isoform beta, 314 amino acids) (from UniProt Q9P287-1 1-314)”, the binding result was “binds weakly” in assay [1] and “binds” in assay [2].

Regarding “Flag-YY1 (Yin Yang 1), full length (from UniProt P25490 1-414)”, the binding result was “binds weakly” in assay [3] and “binds” in assay [4].
